Reference: PubChem BioAssay AID977622 (Broad Institute, 2014)
Some of the results follow. Further columns of the screen follow, without active or inactive calls.

What was measured:
[1] = growth inhibition of wild-type GFP E. coli, dose response, h38 mutant RFP, cherry-pick (AID 977622); settings: E. coli mixed culture, 24 h, total growth OD600 at 50 uM
[2] = test system: E. coli h38 humanized mutant ribosome RFP fluorescence, mixed culture, 24 h; assay: as above; settings: h38 mutant RFP at 50 uM

Compound | activity change [1] | activity change [2]
COc1ccc(NC(=O)Nc2cccc3c2O[C@H](CN(C)S(=O)(=O)c2ccc(Cl)cc2)[C@H](C)CN([C@H](C)CO)C3=O)cc1 | -56.1% | -17.9%
Cc1ccc(CNS(=O)(=O)c2ccc3c(c2)NC(=O)CS3)cc1 | -53.4% | 
Cc1ccc(S(=O)(=O)Nc2cccc(-c3ccc(N4CCCCCC4)nn3)c2)cc1 | -46.1% | 10.9%
O=C(O)CCn1c(SCc2cccc3ccccc23)nc2ccccc21 | -34.2% | 
Cc1cc(C(N)=O)nn1-c1c(Cl)cc(Cl)cc1Cl | -16.9% | -17.6%
CC1Cc2cc(S(=O)(=O)N3CCN(c4cccc(Cl)c4)CC3)ccc2N1C(=O)C1CC1 (stereo not drawn) | -26.4% | -5.09%
O=S(=O)(c1ccccc1)N1C[C@H]2[C@@H](c3ccccc31)[C@@H](CO)N2Cc1ccccc1 | -39.8% | 13.3%
O=C(Nc1ccncc1)c1ccc(S(=O)(=O)Nc2ccccc2)cc1 | -42.5% | -36.5%
Cc1nn(C)cc1NC(=O)C[C@@H]1CC[C@@H]2[C@@H](COc3ccc(NC(=O)C4CCC4)cc3C(=O)N2C)O1 | 7.51% | 49.1%
Cn1nc(C(C)(C)C)c([N+](=O)[O-])c1C(=O)Nc1ccc(Br)cc1 | -49.4% | 
CCCc1nc(SCC(=O)N2CCc3ccccc3C2)c2ccccc2n1 | -74.5% | 16.6%
O=C(O)CCN(Cc1ccccc1)S(=O)(=O)c1ccccc1Cl | -15.7% | -13.3%
O=S(=O)(c1cccs1)N1CCCCN2[C@@H](CO)[C@@H](c3ccc(C4=CCCC4)cc3)[C@@H]2C1 | -76% | -38.7%
COc1cc(CC(=O)Nc2nc(C)cs2)cc(OC)c1OC | -1.1% | 
CCn1c(-c2cc(-c3ccc(OC(C)C)cc3)nc3ccccc23)n[nH]c1=S |  | 2.44%
CN1OC[C@@H]2CN(C(=O)c3ccco3)[C@H](c3ccc(-c4ccc(C#N)cc4)cc3)C[C@@H]21 | -14.5% | -16%
Clc1ccc(-c2cn(-c3ccc(Cl)cc3)c3[n+]2CCCCC3)cc1 | -41.8% | 
Cc1cccc(-c2ccc([C@@H]3[C@H](CO)N4CCCCN(S(=O)(=O)c5cccc(C)c5)C[C@@H]34)cc2)c1 | -45.1% | -38%
O=S(=O)(Nc1ccccc1Cl)c1ccc(-c2ccccn2)s1 | -49.8% | -24.3%
O=C(Nc1ccc2c(c1)OCO2)c1cccc(S(=O)(=O)N2CCCC2)c1 | -17% | -8.35%
CCN(C(=O)c1ccnc(C(C)(C)C)c1)c1ccccc1 | -33.6% | -0.566%
COc1ccc(CNC(=O)CSCc2c(F)cccc2Cl)cc1 | -4.45% | -2.93%

Compound | activity change [1] | activity change [2]
CCc1cccc(NC(=O)CCC(=O)N2CCSc3ccccc32)c1 | -59.4% | -2.67%
COc1ccc(Cn2c(-c3ccc(Cl)cc3)c[n+]3ccccc23)cc1 | -23.6% | 
CCc1cc2c(=O)n(Cc3ccccc3)c(SC3CCOC3=O)nc2s1 (stereo not drawn) | -45.7% | -40.1%
C[C@@H]1CN([C@@H](C)CO)C(=O)c2cc(NC(=O)Nc3cccc4ccccc34)ccc2O[C@@H](C)CCCCO[C@@H]1CN(C)C | -23.3% | 8.77%
CC1(Cc2ccccc2C#N)C(=O)Nc2cc(-c3ccccc3Cl)ccc21 (stereo not drawn) | -44.9% | 5.48%
Cc1c(C(=O)NCCSCc2cccc(C(F)(F)F)c2)cnn1-c1ccc(F)cc1 | -88.4% | 
O=[N+]([O-])c1ccc(NCCNCCOc2nonc2-c2ccccc2)c([N+](=O)[O-])c1 | -3.37% | 0.68%
O=C(NCc1ccco1)c1ccc(COc2cccc3ccccc23)cc1 | -15.3% | -11.6%
COc1cccc(S(=O)(=O)N2CCCCN3[C@H](CO)[C@H](c4ccc(C#CC(C)C)cc4)[C@@H]3C2)c1 | -23.3% | 33.5%
COc1cc2c(cc1[N+](=O)[O-])-c1ccc([N+](=O)[O-])cc1C2 | -32.4% | 42.9%
Cc1cc(C(=O)OCC(=O)Nc2cccc(S(N)(=O)=O)c2)c2ccccc2n1 | -21% | -20%
CSc1nnnn1-c1ccc(Cl)cc1 | -7.23% | -25.2%
O=C(Cc1coc2cc(O)ccc12)N1CCN(S(=O)(=O)c2ccc(Br)cc2)CC1 | -57.5% | -10.5%
Cc1noc(C)c1COc1cccc(C(=O)N2CCc3ccccc32)c1 | -24.5% | 4.61%
Cc1nn(-c2ccccc2)c(C)c1CN(C)C(=O)c1ccc(S(=O)(=O)NCc2ccco2)cc1 | -56.8% | 0.622%
O=C(O)c1cc(S(=O)(=O)N2CCN(C(c3ccccc3)c3ccccc3)CC2)ccc1Cl | -38.3% | 
S=c1[nH]nc(-c2ccc(Br)cc2)n1-c1ccc2c(c1)OCCO2 | -75.2% | 
CN(Cc1nnc(-c2ccc(F)cc2)o1)c1ccccc1 | -31.2% | 22.5%
O=C1c2cccc3cccc(c23)C(=O)N1CCCn1ccnc1 | -45.1% | 3.62%
COc1cc(OC)cc(C(=O)Nc2ccc(C(=O)Nc3ccccc3OC)cc2)c1 | -18.7% | -4.87%
COCCN(C(=O)c1ccccc1F)c1nnc(-c2ccc(OC)cc2)s1 | -8.78% | -3.65%
C=C1SC(Nc2c(C)cc(C)cc2C)=NC12CCCCC2 | -79% | -53.9%

Compound | activity change [1] | activity change [2]
COC(=O)c1ccc(OS(=O)(=O)c2ccc(NC(C)=O)cc2)cc1 | -28% | 
CCC(C(=O)NCCc1ccc(C)cc1)n1nc(C)c2c(C)n(-c3ccccc3)nc2c1=O (stereo not drawn) | -4.61% | 4.35%
Cc1ccccc1OCc1nc2ccccc2n1C | 1.02% | 23.5%
Nc1ccc(C(=O)OCC(=O)N2CCc3ccccc3C2)cc1[N+](=O)[O-] | -48.1% | -32.7%
CCN(CC)CCN(C(=O)c1ccc2c(c1)OCCO2)c1nc2cc(C)cc(C)c2s1 | -44.3% | -8.22%
O=C(O)c1cc([N+](=O)[O-])ccc1NCc1ccccc1 | -70.4% | 6.33%
CN(C)C(CNS(=O)(=O)c1cc([N+](=O)[O-])ccc1Cl)c1ccco1 (stereo not drawn) | -18.5% | 33.4%
COc1cccc(S(=O)(=O)N2CCCCN3[C@H](C2)[C@H](c2ccc(C#CC(C)C)cc2)[C@@H]3CO)c1 | -29.1% | 0.063%
COc1cccc(S(=O)(=O)N2CCCCN3[C@H](CO)[C@@H](c4ccc(C#CC(C)C)cc4)[C@H]3C2)c1 | -92.8% | 7.36%
CO[C@@H]1CN(C)C(=O)c2cc(NC(=O)C3CCCC3)ccc2OC[C@@H](C)N(C(=O)Nc2ccc(C(F)(F)F)cc2)C[C@H]1C | -51% | 82.6%
C[C@@H]1CCCCO[C@@H](CN(C)C)[C@H](C)CN([C@H](C)CO)C(=O)c2cc(NC(=O)Nc3cccc4ccccc34)ccc2O1 | 5.53% | 13.8%
CC1(C(=O)NS(=O)(=O)c2cccc(F)c2)CCN1C(=O)C1(c2ccc(Cl)cc2)CCC1 (stereo not drawn) | -18.6% | 101%
CC(C)Cc1nnc(NS(=O)(=O)c2ccccc2)s1 | -32.6% | -5.12%
COc1ccc(-c2ccccc2)cc1NC(=O)c1ccncc1 | -9.8% | 5.37%
CCN(CC(=O)Nc1ccccc1OC)CC(=O)Nc1c(Cl)ccc(C)c1Cl | -26.6% | 6.83%
O=C(Nc1ccn(Cc2ccc(Cl)cc2)n1)c1ccccc1 | -7.6% | -4.68%
O=C1CC[C@@H](CN(Cc2ccccc2)Cc2cn[nH]c2-c2cc3ccccc3o2)N1 | -93.5% | -22.7%
CC1=Nc2cc(C(=O)NCC3CCCO3)ccc2Sc2ccc(Br)cc21 (stereo not drawn) | -55.4% | -13.4%
O=C(Nc1ccc(Cl)cn1)c1cc2c(s1)-c1ccccc1OC2 | -5.82% | -3.75%
O=C(CCC(=O)N1CCN(c2ccc(F)cc2)CC1)c1ccc(F)cc1 | -3.71% | -8.05%
COc1ccc(C(=O)N(c2ccccc2)c2nccc3ccccc23)cc1OC | -30.2% | 10.3%
Cc1ccc(CCN2C(=O)c3ccccc3C2C(=O)NCc2cccnc2)cc1 (stereo not drawn) | 6.22% | 33.7%

Exported as tab-separated lines: part of the list above
Compound	activity change [1]	activity change [2]
COCCN(C(=O)c1ccccc1F)c1nnc(-c2ccc(OC)cc2)s1	-8.78%	-3.65%
C=C1SC(Nc2c(C)cc(C)cc2C)=NC12CCCCC2	-79%	-53.9%
COC(=O)c1ccc(OS(=O)(=O)c2ccc(NC(C)=O)cc2)cc1	-28%	
CCC(C(=O)NCCc1ccc(C)cc1)n1nc(C)c2c(C)n(-c3ccccc3)nc2c1=O (stereo not drawn)	-4.61%	4.35%
Cc1ccccc1OCc1nc2ccccc2n1C	1.02%	23.5%
Nc1ccc(C(=O)OCC(=O)N2CCc3ccccc3C2)cc1[N+](=O)[O-]	-48.1%	-32.7%
CCN(CC)CCN(C(=O)c1ccc2c(c1)OCCO2)c1nc2cc(C)cc(C)c2s1	-44.3%	-8.22%
O=C(O)c1cc([N+](=O)[O-])ccc1NCc1ccccc1	-70.4%	6.33%
CN(C)C(CNS(=O)(=O)c1cc([N+](=O)[O-])ccc1Cl)c1ccco1 (stereo not drawn)	-18.5%	33.4%
COc1cccc(S(=O)(=O)N2CCCCN3[C@H](C2)[C@H](c2ccc(C#CC(C)C)cc2)[C@@H]3CO)c1	-29.1%	0.063%
COc1cccc(S(=O)(=O)N2CCCCN3[C@H](CO)[C@@H](c4ccc(C#CC(C)C)cc4)[C@H]3C2)c1	-92.8%	7.36%
CO[C@@H]1CN(C)C(=O)c2cc(NC(=O)C3CCCC3)ccc2OC[C@@H](C)N(C(=O)Nc2ccc(C(F)(F)F)cc2)C[C@H]1C	-51%	82.6%
C[C@@H]1CCCCO[C@@H](CN(C)C)[C@H](C)CN([C@H](C)CO)C(=O)c2cc(NC(=O)Nc3cccc4ccccc34)ccc2O1	5.53%	13.8%
CC1(C(=O)NS(=O)(=O)c2cccc(F)c2)CCN1C(=O)C1(c2ccc(Cl)cc2)CCC1 (stereo not drawn)	-18.6%	101%
CC(C)Cc1nnc(NS(=O)(=O)c2ccccc2)s1	-32.6%	-5.12%
COc1ccc(-c2ccccc2)cc1NC(=O)c1ccncc1	-9.8%	5.37%
CCN(CC(=O)Nc1ccccc1OC)CC(=O)Nc1c(Cl)ccc(C)c1Cl	-26.6%	6.83%
O=C(Nc1ccn(Cc2ccc(Cl)cc2)n1)c1ccccc1	-7.6%	-4.68%
O=C1CC[C@@H](CN(Cc2ccccc2)Cc2cn[nH]c2-c2cc3ccccc3o2)N1	-93.5%	-22.7%
CC1=Nc2cc(C(=O)NCC3CCCO3)ccc2Sc2ccc(Br)cc21 (stereo not drawn)	-55.4%	-13.4%
O=C(Nc1ccc(Cl)cn1)c1cc2c(s1)-c1ccccc1OC2	-5.82%	-3.75%
O=C(CCC(=O)N1CCN(c2ccc(F)cc2)CC1)c1ccc(F)cc1	-3.71%	-8.05%
COc1ccc(C(=O)N(c2ccccc2)c2nccc3ccccc23)cc1OC	-30.2%	10.3%
Cc1ccc(CCN2C(=O)c3ccccc3C2C(=O)NCc2cccnc2)cc1 (stereo not drawn)	6.22%	33.7%

Further compounds follow.

Compound | activity change [1] | activity change [2]
CC1(C(=O)Nc2ccc3c(c2)OCCO3)CSCC(=O)N1CCOc1ccccc1 (stereo not drawn) | -6.58% | 5.03%
COc1ccc(C2CC(c3ccc(Br)cc3)=NN2C(=O)CN2CCCC2)cc1 (stereo not drawn) | 2.17% | 28.8%
CN(C)C(=O)C1C2NC(=S)N(c3cccc(Cl)c3)C1(C)Oc1ccc(Cl)cc12 (stereo not drawn) | -17.5% | 1.75%
O=C(O)c1ccccc1NC(=O)C(c1ccccc1)c1ccccc1 | -26.5% | 8.05%
O=C(O)c1ccc(COc2ccc3ccccc3c2)o1 | -28.4% | 0.92%
S=c1[nH]c2cc(Cl)ccc2s1 | -54.3% | -24.5%
Nc1ccc(C(=O)OCCc2ccccc2)cc1 | -21.4% | -9.11%
CSc1cccc(NC(=O)CSc2nc3ccccc3o2)c1 | -77% | 23.1%
Cc1ccc(-c2csc(NC(=O)CCNC(=O)c3ccco3)n2)cc1 | -94% | 16.8%
O=C(Cc1cccc(NC(=O)C2CCCN(C(=O)CCc3ccccc3)C2)c1)Nc1cccc(C(=O)N2CCCCC2)c1 (stereo not drawn) | -24.4% | 9.69%
Cn1c(SCC(=O)Nc2ccccc2-c2ccccc2)nnc1-c1ccco1 | -19.5% | -8.01%
CNC(=O)c1sc(-c2ccccn2)nc1C | -3.82% | 21.6%
C[C@@H]1CCCCO[C@@H](CN(C)C(=O)CCCN(C)C)[C@H](C)CN([C@@H](C)CO)C(=O)c2cc(NC(=O)Nc3cccc4ccccc34)ccc2O1 | -42.5% | 18.2%
O=C(Nc1ccccc1)N1C[C@@H]2[C@H](c3ccccc31)[C@@H](CO)N2C(=O)Cc1ccccn1 | -38.9% | 72.5%
COc1ccc2sc(N3C(=O)CC(Cc4cccc(C)c4)C3=O)nc2c1 (stereo not drawn) | -78.9% | -19.9%
CC(C)(C)CC(=O)Nc1ccccc1N1CCN(c2ccccc2)CC1 | -27.6% | 28.9%
O=S(=O)(NCC1CCCO1)c1ccc(-c2ccc(Cl)cc2)cc1 (stereo not drawn) | -64.3% | -37.4%
CC(=O)Nc1ccc(Nc2nc(C)c([N+](=O)[O-])c(N(C)c3ccccc3)n2)cc1 | -64.4% | -18.9%
N#Cc1c(Cl)cccc1Oc1ccc(S(=O)(=O)Nc2ccccc2)cc1 | -97.6% | -57.4%
Cc1[nH]nc2c1C(c1ccc(Br)cc1)N(Cc1ccccc1)C2=O (stereo not drawn) | -79.2% | -38.1%
Cn1c(=O)c2c(-c3ccccc3)n(-c3cc([N+](=O)[O-])ccc3N)cc2n(C)c1=O | -6.53% | -20.5%
